PubChem BioAssay AID652259 | Drosophila RNAi Screening Center – 2013
Aim: 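Genome-wide hunt for genes that control Wingless pathway activity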 (primary screen). System: Drosophila clone 8 imaginal disc epithelial cells. Reagents: long dsRNA against Drosophila genes. Treatment: pathway stimulated by co-transfected Wingless expression plasmid. Measurement: 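Dual luciferase reads per well after Wingless plasmid stimulation: reporter firefly light and Renilla control light; activity is firefly divided by Renilla, a ratio not deposited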. Scale: firefly reporter light: higher = more Wg reporter light, before normalisation; Renilla control light: higher = more transfected or surviving cells. Hit rule: 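Strong candidates differ from their plate mean by at least two out of four per-plate statistical tests; weak candidates meet just one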. Meaning of the calls: active = candidate regulator (raises or lowers reporter); inactive = not a candidate.
In all, the deposit lists about 22,000 reagents; shown is a random part of those with a known target gene and a result. Over the whole deposit, 233 (1.1%) were called active. 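Light values are raw, unnormalised plate reads; the ratio scores behind the reporter calls were not deposited.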 A number with no mark means an inactive call. The numbers tell different reagents against one gene apart. Names joined by + are all predicted targets of the reagent. Not stated in the record: the amount of reagent, the time to read-out, the dose of the treatment.

After knock-down of knk (knickkopf), the record shows firefly reporter light, replicate 1 = 16465; Renilla control light, replicate 1 = 4274. Knock-down of CG6805 resulted in: firefly reporter light, replicate 1 = 16100; Renilla control light, replicate 1 = 6979. Depletion of CG15464 (retired record) #1 resulted in: firefly reporter light, replicate 1 = 23664; Renilla control light, replicate 1 = 11509. For CG15464 (retired record) #2 the deposit lists firefly reporter light, replicate 1 = 6.09e5; firefly reporter light, replicate 2 = 6.53e5; Renilla control light, replicate 1 = 2.13e5; Renilla control light, replicate 2 = 2.46e5. With knock-down of Nse1 (Non-SMC element 1), the record shows firefly reporter light, replicate 1 = 13024; Renilla control light, replicate 1 = 4429. AIMP2 (aaRS-interacting multifunctional protein 2) showed firefly reporter light, replicate 1 = 3256; Renilla control light, replicate 1 = 1458.

BTBD9 (BTB (POZ) domain containing 9) #1 gave firefly reporter light, replicate 1 = 24898; Renilla control light, replicate 1 = 12005. Silencing of BTBD9 (BTB (POZ) domain containing 9) #2 resulted in: firefly reporter light, replicate 1 = 9.45e5; firefly reporter light, replicate 2 = 8.90e5; Renilla control light, replicate 1 = 2.79e5; Renilla control light, replicate 2 = 2.49e5. Against yl (yolkless), the entry reads firefly reporter light, replicate 1 = 19865; Renilla control light, replicate 1 = 9642. After knock-down of CG13795 the results were firefly reporter light, replicate 1 = 3328; firefly reporter light, replicate 2 = 9099; Renilla control light, replicate 1 = 1015; Renilla control light, replicate 2 = 3603. PIG-H + Kmn2 showed firefly reporter light, replicate 1 = 3429; Renilla control light, replicate 1 = 1280. Against CG9962, the values are firefly reporter light, replicate 1 = 2149; firefly reporter light, replicate 2 = 7094; Renilla control light, replicate 1 = 877; Renilla control light, replicate 2 = 2625.

Depletion of Timp (Tissue inhibitor of metalloproteases) came out at: firefly reporter light, replicate 1 = 8029; Renilla control light, replicate 1 = 3072. CG1598 showed firefly reporter light, replicate 1 = 3798; firefly reporter light, replicate 2 = 10633; Renilla control light, replicate 1 = 1107; Renilla control light, replicate 2 = 2736. After knock-down of CG40341 (retired record) #1, the screen gave firefly reporter light, replicate 1 = 18072; Renilla control light, replicate 1 = 11194. For CG40341 (retired record) #2, the entry reads firefly reporter light, replicate 1 = 21392; Renilla control light, replicate 1 = 11990. With knock-down of cwo (clockwork orange), the screen gave firefly reporter light, replicate 1 = 11393; Renilla control light, replicate 1 = 2256.

Laid out differently: results already given
{"gene":"PIG-H + Kmn2","dsRNA no.":1,"firefly reporter light, replicate 1":3429,"Renilla control light, replicate 1":1280}
{"gene":"CG9962","dsRNA no.":1,"firefly reporter light, replicate 1":2149,"firefly reporter light, replicate 2":7094,"Renilla control light, replicate 1":877,"Renilla control light, replicate 2":2625}
